Test results from patent US20240132590A1.
No constants are given. Whether binding was seen depends on the method and setting. Some entries that bind do so weakly or less than the wild type.

The chains behind the UniProt entries cited, without tags or fusion partners. Where a name states a change or a piece, a line headed by the entry shows the natural chain unless it says otherwise.
UniProt P07766: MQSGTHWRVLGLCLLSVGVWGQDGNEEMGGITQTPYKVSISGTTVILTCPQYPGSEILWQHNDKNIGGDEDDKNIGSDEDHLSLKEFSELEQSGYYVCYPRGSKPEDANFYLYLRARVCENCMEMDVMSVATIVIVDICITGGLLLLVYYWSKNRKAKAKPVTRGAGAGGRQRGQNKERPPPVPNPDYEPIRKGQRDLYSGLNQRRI

How the values were obtained:
[1] = target: human CD3 on cells (human) (UniProt P07766); experiment: flow cytometry on Jurkat NFAT cells, PE anti-human Fc secondary antibody
[2] = target: human CD3 on cells (human) (UniProt P07766); experiment: flow cytometry on CD3 expressing cells, IgG format
[3] = target: human CD3 on cells (human) (UniProt P07766); experiment: flow cytometry on Jurkat NFAT cells, PE-labelled anti-human Fc secondary antibody

binding [1]: binds
binding [2]: binds
binding [3]: binds
B1: CD3opt human IgG1 PGLALA (antibody, V domains shown)
VH: EVQLLESGGGLVQPGGSLRLSCAASGFQFSSYAMNWVRQAPGKGLEWVSRIRSKYNNYATYYADSVKGRFTISRDDSKNTLYLQMNSLRAEDTAVYYCVRHTTFPSSYVSYYGYWGQGTLVTVSS
VL: QAVVTQEPSLTVSPGGTVTLTCGSSTGAVTTSNYANWVQEKPGQAFRGLIGGTNKRAPGTPARFSGSLLGGKAALTLSGAQPEDEAEYYCALWYSNLWVFGGGTKLTVLR
